# According to paper PMC8055014:
# By UniProt entry, the sequences of proteins in these tests, tags left out. Where a name states a change or a piece, a line headed by the entry shows the natural chain unless it says otherwise.
# UniProt Q39026: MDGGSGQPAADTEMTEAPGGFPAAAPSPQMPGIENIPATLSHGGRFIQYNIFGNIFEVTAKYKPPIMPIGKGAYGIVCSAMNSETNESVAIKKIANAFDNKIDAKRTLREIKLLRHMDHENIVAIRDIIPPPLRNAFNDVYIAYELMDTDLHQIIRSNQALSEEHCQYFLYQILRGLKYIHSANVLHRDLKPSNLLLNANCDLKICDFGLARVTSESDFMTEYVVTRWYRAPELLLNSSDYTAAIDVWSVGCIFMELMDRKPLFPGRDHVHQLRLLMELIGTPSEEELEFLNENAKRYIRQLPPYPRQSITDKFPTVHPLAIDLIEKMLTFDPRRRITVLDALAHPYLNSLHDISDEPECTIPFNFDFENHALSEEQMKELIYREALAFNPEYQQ
# UniProt Q9LXV2: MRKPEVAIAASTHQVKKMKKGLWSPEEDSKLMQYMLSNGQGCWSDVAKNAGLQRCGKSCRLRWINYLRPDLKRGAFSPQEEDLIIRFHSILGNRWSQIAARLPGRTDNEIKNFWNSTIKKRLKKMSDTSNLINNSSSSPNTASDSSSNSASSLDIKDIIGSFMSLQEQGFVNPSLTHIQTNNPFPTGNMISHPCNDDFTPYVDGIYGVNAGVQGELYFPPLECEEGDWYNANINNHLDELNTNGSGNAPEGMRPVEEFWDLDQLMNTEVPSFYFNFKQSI
# Results are given in words; binding and its absence hold for the method and conditions named. For some assays here: Binding seen in cells or lysates may run through a third protein. Some entries that bind do so weakly or less than the wild type.
# How the values were obtained:
# [1] = molecular target: CAMPK6-HA (Arabidopsis thaliana) (UniProt Q39026); assay: co-IP; MYB46-GFP and CAMPK6-HA co-expressed in Arabidopsis mesophyll protoplasts with MG132; immunoprecipitation with anti-HA antibody, blot with anti-GFP antibody
# [2] = molecular target: MYB46 (yeast two-hybrid bait) (Arabidopsis thaliana) (UniProt Q9LXV2); assay: two-hybrid; MYB46 as bait, CAMPK6 as prey; yeast AH109; spot assay on SD -Leu -Trp -His with 1 mM 3AT
binding [1],binding [2],Substance
binds,–,MYB46-GFP (from UniProt Q9LXV2 1-280)
–,binds,"CAMPK6, constitutively active form of MPK6 (MPK6 D218G, E222A) (yeast two-hybrid prey) (from UniProt Q39026 1-395) (enzyme)"
